Values joined by “and” are separate entries in the source; they are usually repeats but may differ in a detail not shown here. Equal values may be shown once. Some of the results follow. Shown are side measurements of this screen, not its main read-out; they come without a call. Most of these compounds were active or inconclusive in the main read-out, so they are no random draw. Potencies come from curve fits of mixed quality, noted in brackets.
Experiment: qHTS Assay for Modulators of Lamin A Splicing
Settings: HeLa LMNA splicing GFP/RFP minigene ratio, 48 h
Method in brief: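 S3 HeLa cells stably expressing lamin A-EGFP splicing minigene plus DsRed2, 600 cells/well, 48 h compound exposure at 37C. Laser-scanning cytometry; analysed as GFP (500-530 nm)/RFP (575-640 nm) total intensity ratio; 0.5% DMSO vehicle.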

[1] = measured here: GFP splicing reporter channel
[2] = measured here: RFP viability control channel

| Structure (SMILES) | AC50 [1] | AC50 [2] |
| --- | --- | --- |
| COc1cc(/C=C2\SC(=O)N(Cc3ccc(Cl)cc3)C2=O)cc([N+](=O)[O-])c1O | 2.24 µM [falling, single point] | – |
| CN1/C(=C\P(=O)(N(C)C)N(C)C)C(C)(C)c2ccccc21 | – | 14.1 µM [rising, single point] |
| S=C(Nc1ccc(Cl)cc1Cl)N1CCCCC1 | 5.01 µM [rising, partial curve] | 15.8 µM [rising, partial curve] |
| CCN(CCNC(=O)CS(=O)(=O)Cc1nc(-c2cccc(OC)c2)oc1C)c1ccccc1 | – | 2.51 µM [rising, partial curve, poor fit] |
| COc1ccccc1-c1nc(C#N)c(N2CCC(Cc3ccccc3)CC2)o1 | – | 11.2 µM [rising, partial curve] |
| CCOc1nc(SCCOc2ccc(Cl)cc2Cl)nc(N(C)C)n1 | 14.1 µM [rising, single point] | 25.1 µM [rising, single point] |
| Cc1cccc(C(=O)Nc2cccc(OCc3cc(=O)n4cccc(C)c4n3)c2)c1 | 0.708 µM [rising, single point] | – |
| COc1ccc(Nc2cc(C(=O)N3CCc4ccccc4C3)c3ccccc3n2)c(OC)c1 | 35.5 µM [falling, single point] | – |
| COc1ccc(/C=N/NC(=O)CCn2cnc(-c3ccccc3)c2-c2ccccc2)cc1OC | 17.8 µM [rising, partial curve, poor fit] | 7.08 µM [rising, partial curve] |
| Cc1nnc(N2CCCC(C(=O)Nc3cccc(C(F)(F)F)c3)C2)c2nn(-c3ccccc3)c(C)c12 (stereo not given) | 25.1 µM [falling, single point] | 35.5 µM [falling, single point] |
| CCNS(=O)(=O)c1ccc(NC(=O)Nc2cccc(OC)c2)cc1 | – | 35.5 µM [rising, single point] |
| O=C(Nc1cccc(Cl)c1)c1cc(-c2ccc3c(c2)OCCO3)on1 | – | 0.794 µM [falling, full curve, poor fit] |
| CCC(=O)c1ccc(OCC(O)Cn2c(C)nc3ccccc32)cc1 (stereo not given) | 5.01 µM [rising, partial curve, poor fit] | 6.31 µM [rising, partial curve] |
| COc1ccc2[nH]c(C)c(CCNC(=S)Nc3cccc(C)c3)c2c1 | 35.5 µM [rising, single point] | 31.6 µM [rising, single point] |
| CN1N=C(c2ccc(F)c(F)c2)CSC1=NCc1ccccc1 | – | 35.5 µM [rising, single point] |
| Cc1ccc(S(=O)(=O)N(C)CC(=O)O/N=C(\N)c2cccc([N+](=O)[O-])c2)cc1 | – | 35.5 µM [rising, single point] |
| Cc1csc(NC(=O)c2cc3c(s2)CCCCC3)n1 | – | 14.1 µM [rising, single point] |
| Cc1ccc(N=Nc2c(C)[nH]n(C(N)=S)c2=O)cc1C | – | 0.447 µM [rising, full curve, poor fit] |
| Cc1ccc(C(=O)Nc2cccc(C(=O)NCc3ccccc3)c2)o1 | – | 0.0178 µM [falling, full curve, poor fit] |

| Structure (SMILES) | AC50 [1] | AC50 [2] |
| --- | --- | --- |
| O=C(CNC(=O)C1CCCCC1)Nc1ccc(F)c(Cl)c1 | 1.12 µM [falling, single point] | – |
| Cc1noc(C)c1COc1cccc(C(=O)N2CCN(C/C=C/c3ccccc3)CC2)c1 | – | 35.5 µM [rising, single point] |
| COc1ccc(NC(=O)c2ccc3c(c2)OCO3)cc1[N+](=O)[O-] | 2.82 µM [falling, full curve, poor fit] | – |
| Cc1nnc(NC(=O)CSc2nc3c([nH]c4ccccc43)c(=O)n2-c2ccccc2)s1 | 22.4 µM [falling, partial curve, poor fit] | – |
| Cc1cc[n+](-c2nc3ccccc3nc2C(=C=[N-])C#N)cc1 | – | 0.00447 µM [rising, full curve, poor fit] |
| Cc1cc(C)cc(C(=O)NCC(=O)OCC(=O)NCc2ccco2)c1 | – | 8.91 µM [falling, partial curve, poor fit] |
| COc1ccc(C2=NN(C(=O)/C=C/c3ccccc3)C(c3ccccc3)C2)c(OC(C)=O)c1 (stereo not given) | – | 12.6 µM [rising, single point] |
| COc1ccccc1-n1cnnc1SCC(=O)Nc1cccc(S(=O)(=O)N2CCCCC2)c1 | 12.6 µM [rising, single point] | 22.4 µM [rising, partial curve] |
| O=C(NNc1nc(-c2ccc(Cl)cc2)cs1)c1ccco1 | 0.891 µM [rising, single point] | 25.1 µM [rising, single point] |
| CC1(C)CC(=O)C2=C(C1)NC1=C(C(=O)c3ccccc31)C2c1ccccc1 (stereo not given) | – | 20 µM [rising, partial curve, poor fit] |
| CCC(Sc1nc2ccccc2c2nc(CCn3cncc3C)nn12)C(=O)Nc1cccc(OC)c1 (stereo not given) | 6.31 µM [rising, single point] | – |
| Fc1cccc(Cc2noc(CN3CCC(c4ccncc4)CC3)n2)c1 | 0.2 µM [falling, full curve] | 0.355 µM [falling, full curve] |
| COc1ccc(Cn2c(CNC(=O)c3ccc(N(C)C)cc3)nc3cccnc32)cc1 | 0.0631 µM [falling, full curve] | – |
| COc1ccc2c(CN(C)c3ccccc3)cc(=O)oc2c1 | – | 12.6 µM [rising, single point] |
| C=C(C)COc1ccc(-c2[nH]ncc2-c2ccccc2OC)c(O)c1 | 31.6 µM [rising, single point] | – |
| CCC(=O)N1CCc2cc(S(=O)(=O)NCCC(=O)N3CCc4ccccc4C3)ccc21 | 17.8 µM [rising, partial curve] | 15.8 µM [rising, single point] |
| CCn1c(=NC(=O)c2ccc3c(c2)OCCO3)sc2c(C)ccc(OC)c21 | 0.316 µM [rising, partial curve, poor fit] | – |
| CCN(CC)c1ccc(NC(=O)/C=C/c2cc(Br)ccc2OC)cc1 | 15.8 µM [falling, single point] | 12.6 µM [falling, single point] |
| O=C1CN(/N=C\c2ccc([N+](=O)[O-])o2)C(=O)N1 | 0.00355 µM [falling, full curve] | 0.00282 µM [falling, full curve] |

Single records, from the list above. Values in the order: AC50 [1] | AC50 [2]
Fc1cccc(Cc2noc(CN3CCC(c4ccncc4)CC3)n2)c1 in the list: 0.2 µM [falling, full curve] | 0.355 µM [falling, full curve]
CC1(C)CC(=O)C2=C(C1)NC1=C(C(=O)c3ccccc31)C2c1ccccc1 (stereo not given) in the list: – | 20 µM [rising, partial curve, poor fit]
COc1ccccc1-n1cnnc1SCC(=O)Nc1cccc(S(=O)(=O)N2CCCCC2)c1 in the list: 12.6 µM [rising, single point] | 22.4 µM [rising, partial curve]

(cont.)

| Structure (SMILES) | AC50 [1] | AC50 [2] |
| --- | --- | --- |
| Cc1ccc(C)c2[nH]c(=O)c(CN(Cc3ccco3)S(=O)(=O)c3ccc4c(c3)OCCO4)cc12 | – | 31.6 µM [rising, single point] |
| Cc1ccc(OCC(=O)Nc2ccc(OCc3cc(=O)n4cccc(C)c4n3)cc2)cc1C | – | 35.5 µM [falling, single point] |
| CCn1c(-c2csc(-c3ccccc3)n2)n[nH]c1=S | 14.1 µM [rising, single point] | – |
| OCCC1CN(C2CCSCC2)CCN1C1CCCC1 (stereo not given) | – | 0.501 µM [falling, full curve, poor fit] |
| Clc1ccc(OCCOCCN2CCc3ccccc3C2)c(Cl)c1 | – | 35.5 µM [rising, single point] |
| O=C(O)CCCCCCCC(=O)O | 0.0562 µM [falling, full curve, poor fit] | 5.01 nM [falling, full curve, poor fit] and 100 nM [falling, full curve] |
| O=C(NNC(=S)Nc1cccc(C(F)(F)F)c1)c1ccccc1Cl | – | 12.6 µM [rising, partial curve] |
| CCOc1cccc(=O)c2c(C)n(C)c(C)c12 | – | 11.2 µM [rising, partial curve] |
| Clc1ccc(CNc2ccccc2NCc2ccc(Cl)nc2)cn1 | 3.98 µM [rising, partial curve] | – |
| COc1ccc(N2CCN(C(CNC(=O)C(=O)NCCC3=CCCCC3)c3ccco3)CC2)cc1 (stereo not given) | – | 35.5 µM [rising, single point] |
| CCOC(=O)C1(Cc2ccccc2)CCN(Cc2cc(=O)c3ccccc3[nH]2)CC1 | 3.98 µM [falling, full curve] | 3.55 µM [falling, full curve] |
| CCOc1ccc(OCC)c(NC(=O)CSc2nc3cccnc3n2C)c1 | 14.1 µM [rising, partial curve] | 22.4 µM [rising, partial curve] |
| CCC1CSC(Nc2ccc(C(=O)/C=C/c3ccc(OC)c(OC)c3)cc2)=N1 (stereo not given) | 1 µM [rising, partial curve] | 0.355 µM [rising, full curve] |
| CCOc1ccc2nc(SCCNS(=O)(=O)c3ccccc3)sc2c1 | 35.5 µM [rising, single point] | 35.5 µM [rising, single point] |
| COc1ccc(NC(=S)NNC(=O)C2CC2c2ccc(C)cc2)cc1 (stereo not given) | 35.5 µM [rising, single point] | 22.4 µM [rising, single point] |
| CN(C)c1ccc(N=Cc2nc(-c3ccccc3)oc2OC(=O)c2ccccc2)cc1 | 35.5 µM [falling, single point] | – |
| CCOC(=O)c1[nH]c(C)c(C(=O)NC2CCN(C(=O)OCC)CC2)c1C | 12.6 µM [rising, single point] | 12.6 µM [rising, single point] |
| COCCn1c(SCC(=O)NNC(=O)c2ccc(OC)c(OC)c2)nc2ccccc2c1=O | – | 6.31 µM [rising, single point] |

Source: PubChem BioAssay AID1487 (National Center for Advancing Translational Sciences (NCATS), 2009)
